Source: patent US20170218015 (published 2017)

Assay: general procedure: solution-phase peptide synthesis; ethyl-N-dimethylpropylamine carbodiimide / 2-hydroxypyridine-N-oxide
Details: acetate salt

Substance	step yield (coupling step) [%]	step yield (late stage modification step) [%]	final purity (method not given) (whole synthesis, scale of the general procedure 2.35 mmol)
Boc-Inp-(D)Bal-(D)Trp-Phe-Apc(Boc)-NH2	86		
H-Inp-(D)Bal-(D)Trp-Phe-Apc-NH2		70	greater than 95%
